The text below walks through data of publication PMC7969032, “Tandem RNA binding sites induce self-association of the stress granule marker protein TIA-1”.

Test [1] has as its target T-cell intracellular antigen protein (TIA-1), full-length, short isoform (human) (UniProt P31483). Nature of the test: thioflavin T fluorescence; TIA-1 alone at 2.5 μM in HEPES aggregation buffer with 5 μM ThT, orbital shaking 500 r.p.m., 30 °C; both purified.
Test [2] has the same target. Nature of the test: SAXS; static SAXS, TIA-1 at 0.37-2.9 mg/ml in 20 mM sodium phosphate, 60 mM KCl, 0.5 M arginine-HCl, 1 mM MgCl2, 2 mM DTT, 0.5 mM EDTA, pH 7.0; both purified.
Test [3] shares this target. In words: condition: only with 5:1 excess TC sites (TC5 ssDNA); turbidity at 385 nm; TIA-1 2.5 μM with excess TC5 ssDNA (5:1 TC sites over TIA-1), aggregation buffer, room temperature; both purified.
The target is the same in test [4]. In words: condition: only in buffer including 500 mM arginine; sedimentation of the condensed phase by centrifugation (Csat); control: TIA-1 10 μM diluted into size exclusion buffer with 0.5 M arginine-HCl, room temperature; both purified.
For test [5] the target is unchanged. Nature of the test: condition: only 2.5 μM TIA-1 at room temperature, alone or with single-site or A-rich nucleic acid; turbidity at 385 nm; TIA-1 2.5 μM alone or with 0.25 μM single-site or non-cognate nucleic acid (UC1, TC1, A-rich, p53 site 1), aggregation buffer, room temperature, 10 min; both purified.

Results are given in words; binding and its absence hold for the method and conditions named.

B1: T-cell intracellular antigen protein (TIA-1), full-length, short isoform (protein, UniProt P31483-2 1-375)
chain: MEDEMPKTLYVGNLSRDVTEALILQLFSQIGPCKNCKMIMDTAGNDPYCFVEFHEHRHAAAALAAMNGRKIMGKEVKVNWATTPSSQKKDTSNHFHVFVGDLSPEITTEDIKAAFAPFGRISDARVVKDMATGKSKGYGFVSFFNKWDAENAIQQMGGQWLGGRQIRTNWATRKPPAPKSTYESNTKQLSYDEVVNQSSPSNCTVYCGGVTSGLTEQLMRQTFSPFGQIMEIRVFPDKGYSFVRFNSHESAAHAIVSVNGTTIEGHVVKCYWGKETLDMINPVQQQNQIGYPQPYGQWGQWYGNAQQIGQYMPNGWQVPAYGMYGQAWNQQGFNQTQSSAPWMGPNYGVQPPQGQNGSMLPNQPSGYRVAGYETQ
As for B1, the binding entry in test [1] is reported as “no binding (condition: 2.5 μM TIA-1 alone)”; in test [2], “no binding (condition: in buffer with 0.5 M arginine–HCl)”; in test [3], “no binding”; in test [4], “no binding”; in test [5], “no binding”.
